The other results are listed elsewhere or left out.
Assays:
Assay in all cases: glycan array binding signal (z-score within array); higher = stronger binding
Conditions in all cases: glycan notation: IUPAC condensed, linker removed
[1] = molecular target: Neu5Ac(a2-6)Gal(b1-4)GlcNAc(b1-3)Gal(b1-4)GlcNAc(b1-3)Gal(b1-4)GlcNAc(b1-2)Man(a1-3)[Neu5Ac(a2-6)Gal(b1-4)GlcNAc(b1-3)Gal(b1-4)GlcNAc(b1-3)Gal(b1-4)GlcNAc(b1-2)Man(a1-6)]GalNAc
How it was run: (§1)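 The Consortium for Functional Glycomics database supplied 3228 glycan arrays, of which those lacking an available protein sequence were dropped. The binding signal, a within-array Z-score, was averaged across arrays of the same protein sequence and across linkers. Negative scores can be read as non-binding.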

[2] = molecular target: Neu5Ac(a2-6)Gal(b1-4)GlcNAc(b1-3)Gal(b1-4)GlcNAc(b1-3)GalNAc
How it was run: as §1

[3] = molecular target: Neu5Ac(a2-6)Gal(b1-4)GlcNAc(b1-3)Gal(b1-4)GlcNAc(b1-3)[Neu5Ac(a2-6)Gal(b1-4)GlcNAc(b1-3)Gal(b1-4)GlcNAc(b1-6)]GalNAc
How it was run: as §1

[4] = molecular target: Neu5Ac(a2-6)Gal(b1-4)GlcNAc(b1-3)Gal(b1-4)GlcNAc(b1-6)[Gal(b1-3)]GalNAc
How it was run: as §1

[5] = molecular target: Neu5Ac(a2-6)Gal(b1-4)GlcNAc(b1-3)Gal(b1-4)[Fuc(a1-3)]GlcNAc(b1-3)Gal(b1-4)[Fuc(a1-3)]GlcNAc
How it was run: as §1

[6] = molecular target: Neu5Ac(a2-6)Gal(b1-4)GlcNAc(b1-3)GalNAc
How it was run: as §1

[7] = molecular target: Neu5Ac(a2-6)Gal(b1-4)GlcNAc(b1-3)[Neu5Ac(a2-6)Gal(b1-4)GlcNAc(b1-6)]GalNAc
How it was run: as §1

[8] = molecular target: Neu5Ac(a2-6)Gal(b1-4)GlcNAc(b1-6)GalNAc
How it was run: as §1

[9] = molecular target: Neu5Ac(a2-6)Gal(b1-4)GlcNAc(b1-6)[Gal(b1-3)GlcNAc(b1-3)]Gal(b1-4)Glc
How it was run: as §1

[10] = molecular target: Neu5Ac(a2-6)Gal(b1-4)GlcNAc(b1-6)[Gal(b1-3)]GalNAc
How it was run: as §1

[11] = molecular target: Neu5Ac(a2-6)Gal(b1-4)GlcNAc6S
How it was run: as §1

Neu5Ac(a2-6)GalNAc = molecular target: Neu5Ac(a2-6)GalNAc
How it was run: as §1

[12] = molecular target: Neu5Ac(a2-6)GalNAc(b1-4)GlcNAc
How it was run: as §1

[13] = molecular target: Neu5Ac(a2-6)GalNAc(b1-4)GlcNAc6S
How it was run: as §1

[14] = molecular target: Neu5Ac(a2-6)GlcNAc(b1-4)GlcNAc
How it was run: as §1

[15] = molecular target: Neu5Ac(a2-6)GlcNAc(b1-4)GlcNAc(b1-4)GlcNAc
How it was run: as §1

Neu5Ac(a2-8)Neu5Ac = molecular target: Neu5Ac(a2-8)Neu5Ac
How it was run: as §1

[16] = molecular target: Neu5Ac(a2-8)Neu5Ac(a2-3)Gal(b1-3)GalNAc(b1-4)[Neu5Ac(a2-3)]Gal(b1-4)Glc
How it was run: as §1

[17] = molecular target: Neu5Ac(a2-8)Neu5Ac(a2-3)Gal(b1-3)GalNAc(b1-4)[Neu5Ac(a2-8)Neu5Ac(a2-3)]Gal(b1-4)Glc
How it was run: as §1

[18] = molecular target: Neu5Ac(a2-8)Neu5Ac(a2-3)Gal(b1-4)Glc
How it was run: as §1

[19] = molecular target: Neu5Ac(a2-8)Neu5Ac(a2-3)Gal(b1-4)GlcNAc
How it was run: as §1

[20] = molecular target: Neu5Ac(a2-8)Neu5Ac(a2-3)[Gal(b1-3)GalNAc(b1-4)]Gal(b1-4)Glc
How it was run: as §1

[21] = molecular target: Neu5Ac(a2-8)Neu5Ac(a2-3)[GalNAc(b1-4)]Gal(b1-4)Glc
How it was run: as §1

[22] = molecular target: Neu5Ac(a2-8)Neu5Ac(a2-8)Neu5Ac
How it was run: as §1

[23] = molecular target: Neu5Ac(a2-8)Neu5Ac(a2-8)Neu5Ac(a2-3)Gal(b1-4)Glc
How it was run: as §1

[24] = molecular target: Neu5Ac(a2-8)Neu5Ac(a2-8)Neu5Ac(a2-3)[Gal(b1-3)GalNAc(b1-4)]Gal(b1-4)Glc
How it was run: as §1

[25] = molecular target: Neu5Ac(a2-8)Neu5Ac(a2-8)Neu5Ac(a2-3)[GalNAc(b1-4)]Gal(b1-4)Glc
How it was run: as §1

[26] = molecular target: Neu5Ac(a2-8)Neu5Ac(a2-8)Neu5Ac(a2-8)Neu5Ac(a2-3)[GalNAc(b1-4)]Gal(b1-4)Glc
How it was run: as §1

[27] = molecular target: Neu5Ac(a2-8)Neu5Gc(a2-3)Gal(b1-4)GlcNAc
How it was run: as §1

[28] = molecular target: Neu5Ac(b2-6)Gal(b1-4)GlcNAc
How it was run: as §1

Neu5Ac(b2-6)GalNAc = molecular target: Neu5Ac(b2-6)GalNAc
How it was run: as §1

[29] = molecular target: Neu5Ac9Ac(a2-3)Gal(b1-4)GlcNAc
How it was run: as §1

[30] = molecular target: Neu5Ac9Ac(a2-6)Gal(b1-4)GlcNAc
How it was run: as §1

[31] = molecular target: Neu5Gc(a2-3)Gal(b1-3)GlcNAc
How it was run: as §1

[32] = molecular target: Neu5Gc(a2-3)Gal(b1-3)[Fuc(a1-4)]GlcNAc
How it was run: as §1

Neu5Gc(a2-3)Gal(b1-4)Glc = molecular target: Neu5Gc(a2-3)Gal(b1-4)Glc
How it was run: as §1

[33] = molecular target: Neu5Gc(a2-3)Gal(b1-4)GlcNAc
How it was run: as §1

[34] = molecular target: Neu5Gc(a2-3)Gal(b1-4)GlcNAc(b1-3)Gal(b1-4)GlcNAc(b1-2)Man(a1-3)[Neu5Gc(a2-3)Gal(b1-4)GlcNAc(b1-3)Gal(b1-4)GlcNAc(b1-2)Man(a1-6)]Man(b1-4)GlcNAc(b1-4)GlcNAc
How it was run: as §1

[35] = molecular target: Neu5Gc(a2-3)Gal(b1-4)[Fuc(a1-3)]GlcNAc
How it was run: as §1

[36] = molecular target: Neu5Gc(a2-6)Gal(b1-4)GlcNAc
How it was run: as §1

Neu5Gc(a2-6)GalNAc = molecular target: Neu5Gc(a2-6)GalNAc
How it was run: as §1

[37] = molecular target: Neu5Gc(a2-8)Neu5Ac(a2-3)Gal(b1-4)GlcNAc
How it was run: as §1

[38] = molecular target: Neu5Gc(a2-8)Neu5Gc(a2-3)Gal(b1-4)GlcNAc
How it was run: as §1

[39] = molecular target: Neu5Gc(a2-8)Neu5Gc(a2-3)Gal(b1-4)GlcNAc(b1-3)Gal(b1-4)GlcNAc
How it was run: as §1

[40] = molecular target: Neu5Gc(a2-8)Neu5Gc(a2-6)Gal(b1-4)GlcNAc
How it was run: as §1

B1: HopZSSI-T (Helicobacter pylori), B5Z6D0 (protein)
chain: MGSSHHHHHHSSGLVPRGSHMENLYFQGEDNGFFISAGYQIGEAAQMVKNTGELKKLSDTYENLSNLLTNFNNLNQAVTNASSPSEINAAIDNLKANTQGLTGEKTNSPAYQAVYLALNAAVGLWNVIAYNVQCGPGNSSQQSVTFEGQPGHNSSSINCNLTGYNNGVSGPLSIDNFKQLNQAYQVLQQALKQGVPVLNNTNQKIEVKVTTQTNGQSSKETTTTTTTNDAQTLLQEASKMIDVLTTNCPWVNHNPGQNGGAPWGLIRQECVSGFATEFSAVTSMIKNAQEIVTQAQSLNANQNNQNAPQDFNPYTSADRAFAQNMLNHAQAQAKILELADQMKKDLNTIPSQFITNYLAACRIDGTTPSQGVTNNTWGAGCAYVEETITALNNSLAHFGTQAEQIKQSELLARTILDFRGSLSTLNSTYNSITTTASNTPNSPFLKNLISQSTNPNNPGGLQAVYQVNQSAYSQLLSATQELGHNPFRRIGLISSQT
[1]
  glycan array binding signal (z-score): 0.709
[2]
  glycan array binding signal (z-score): 0.002
[3]
  glycan array binding signal (z-score): -0.839
[4]
  glycan array binding signal (z-score): -0.191
[5]
  glycan array binding signal (z-score): -0.258
[6]
  glycan array binding signal (z-score): 0.356
[7]
  glycan array binding signal (z-score): -0.332
[8]
  glycan array binding signal (z-score): 0.043
[9]
  glycan array binding signal (z-score): 0.45
[10]
  glycan array binding signal (z-score): 3.23
[11]
  glycan array binding signal (z-score): 0.909
Neu5Ac(a2-6)GalNAc
  glycan array binding signal (z-score): 2.01
[12]
  glycan array binding signal (z-score): -0.534
[13]
  glycan array binding signal (z-score): 0.493
[14]
  glycan array binding signal (z-score): -0.176
[15]
  glycan array binding signal (z-score): -0.141
Neu5Ac(a2-8)Neu5Ac
  glycan array binding signal (z-score): 0.598
[16]
  glycan array binding signal (z-score): 0.055
[17]
  glycan array binding signal (z-score): 0.05
[18]
  glycan array binding signal (z-score): -0.031
[19]
  glycan array binding signal (z-score): -0.425
[20]
  glycan array binding signal (z-score): -0.422
[21]
  glycan array binding signal (z-score): 1
[22]
  glycan array binding signal (z-score): -0.186
[23]
  glycan array binding signal (z-score): 0.179
[24]
  glycan array binding signal (z-score): -1.01
[25]
  glycan array binding signal (z-score): 1.09
[26]
  glycan array binding signal (z-score): -0.01
[27]
  glycan array binding signal (z-score): -0.272
[28]
  glycan array binding signal (z-score): -0.701
Neu5Ac(b2-6)GalNAc
  glycan array binding signal (z-score): -0.314
[29]
  glycan array binding signal (z-score): -0.013
[30]
  glycan array binding signal (z-score): -0.582
[31]
  glycan array binding signal (z-score): 0.035
[32]
  glycan array binding signal (z-score): -0.495
Neu5Gc(a2-3)Gal(b1-4)Glc
  glycan array binding signal (z-score): -0.125
[33]
  glycan array binding signal (z-score): -0.047
[34]
  glycan array binding signal (z-score): 1.53
[35]
  glycan array binding signal (z-score): -0.344
[36]
  glycan array binding signal (z-score): 0.129
Neu5Gc(a2-6)GalNAc
  glycan array binding signal (z-score): -0.3
[37]
  glycan array binding signal (z-score): 0.067
[38]
  glycan array binding signal (z-score): -0.328
[39]
  glycan array binding signal (z-score): -0.129
[40]
  glycan array binding signal (z-score): 0.181

Source: the supplement of paper PMC8728848
